According to US12377052B2, “Dual-responsive nanoparticles for enhanced antibacterial efficacy” (priority 2020, dated 2025):
For at least one compound, name, drawing or mass did not settle the structure.

Test system: P. aeruginosa (ATCC 27853)
Experiment: Mouse lung infection model
Assay type: in vivo, ICR/Swiss mice
Settings: single i.v. dose, 5 mg/kg rifampicin or equivalent NP dose, neutropenic mice

## CO[C@H]1/C=C/O[C@@]2(C)Oc3c(C)c(O)c4c(O)c(c(/C=N/N5CCN(C)CC5)c(O)c4c3C2=O)NC(=O)/C(C)=C\C=C\[C@H](C)[C@H](O)[C@@H](C)[C@@H](O)[C@@H](C)[C@H](OC(C)=O)[C@@H]1C [Rifampicin]
  reduction in CFU in lung: very limited efficacy
